Test results published in the supplement of paper PMC10849652.
The list shows a part of the results.

The chains behind the UniProt entries cited, without tags or fusion partners. Where a name states a change or a piece, a line headed by the entry shows the natural chain unless it says otherwise.
UniProt P32780: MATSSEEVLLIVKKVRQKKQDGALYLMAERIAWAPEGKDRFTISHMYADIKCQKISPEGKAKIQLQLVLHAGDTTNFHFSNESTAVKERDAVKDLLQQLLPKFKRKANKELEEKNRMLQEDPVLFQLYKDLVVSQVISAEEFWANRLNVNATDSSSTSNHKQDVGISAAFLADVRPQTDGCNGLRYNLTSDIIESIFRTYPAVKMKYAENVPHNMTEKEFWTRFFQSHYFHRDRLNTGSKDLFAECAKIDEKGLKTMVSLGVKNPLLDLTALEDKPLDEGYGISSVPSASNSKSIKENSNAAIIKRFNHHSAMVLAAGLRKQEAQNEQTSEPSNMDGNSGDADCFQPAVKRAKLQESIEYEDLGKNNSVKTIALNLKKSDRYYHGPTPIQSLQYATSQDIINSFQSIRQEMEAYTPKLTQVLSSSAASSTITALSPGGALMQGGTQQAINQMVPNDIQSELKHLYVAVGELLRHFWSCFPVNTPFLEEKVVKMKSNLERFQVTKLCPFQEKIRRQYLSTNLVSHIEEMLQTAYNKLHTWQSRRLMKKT
UniProt P36969, whole entry, looked up: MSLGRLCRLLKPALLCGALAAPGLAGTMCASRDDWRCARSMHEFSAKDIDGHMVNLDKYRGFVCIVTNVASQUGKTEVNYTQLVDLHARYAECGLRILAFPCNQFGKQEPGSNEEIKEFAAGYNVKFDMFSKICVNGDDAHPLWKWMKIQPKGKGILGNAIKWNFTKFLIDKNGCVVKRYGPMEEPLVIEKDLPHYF
UniProt Q7Z4H7: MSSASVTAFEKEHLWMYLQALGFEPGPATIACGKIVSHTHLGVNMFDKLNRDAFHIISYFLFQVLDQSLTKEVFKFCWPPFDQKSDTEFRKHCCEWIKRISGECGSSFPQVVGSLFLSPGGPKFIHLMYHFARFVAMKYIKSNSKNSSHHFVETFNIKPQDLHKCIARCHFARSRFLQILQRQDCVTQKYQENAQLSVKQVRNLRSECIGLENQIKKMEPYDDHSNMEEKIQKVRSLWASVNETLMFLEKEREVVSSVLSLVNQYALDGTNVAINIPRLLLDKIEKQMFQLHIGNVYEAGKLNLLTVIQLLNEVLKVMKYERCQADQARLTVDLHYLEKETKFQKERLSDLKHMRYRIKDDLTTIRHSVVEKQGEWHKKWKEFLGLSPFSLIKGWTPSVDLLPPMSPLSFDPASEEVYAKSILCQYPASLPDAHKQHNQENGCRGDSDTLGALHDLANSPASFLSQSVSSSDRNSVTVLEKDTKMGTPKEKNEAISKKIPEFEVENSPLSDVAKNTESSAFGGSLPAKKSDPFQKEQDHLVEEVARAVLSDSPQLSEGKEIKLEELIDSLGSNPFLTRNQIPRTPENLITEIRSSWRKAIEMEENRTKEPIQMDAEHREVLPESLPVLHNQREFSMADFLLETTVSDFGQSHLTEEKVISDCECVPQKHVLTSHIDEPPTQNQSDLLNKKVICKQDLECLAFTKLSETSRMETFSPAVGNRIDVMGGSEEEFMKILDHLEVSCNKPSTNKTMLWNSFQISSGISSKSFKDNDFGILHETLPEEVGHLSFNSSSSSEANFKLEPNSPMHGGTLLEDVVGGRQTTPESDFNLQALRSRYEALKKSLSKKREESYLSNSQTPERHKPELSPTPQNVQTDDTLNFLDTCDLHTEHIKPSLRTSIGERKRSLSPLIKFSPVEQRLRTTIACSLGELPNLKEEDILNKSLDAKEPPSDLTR
UniProt Q96CP6, whole entry, looked up: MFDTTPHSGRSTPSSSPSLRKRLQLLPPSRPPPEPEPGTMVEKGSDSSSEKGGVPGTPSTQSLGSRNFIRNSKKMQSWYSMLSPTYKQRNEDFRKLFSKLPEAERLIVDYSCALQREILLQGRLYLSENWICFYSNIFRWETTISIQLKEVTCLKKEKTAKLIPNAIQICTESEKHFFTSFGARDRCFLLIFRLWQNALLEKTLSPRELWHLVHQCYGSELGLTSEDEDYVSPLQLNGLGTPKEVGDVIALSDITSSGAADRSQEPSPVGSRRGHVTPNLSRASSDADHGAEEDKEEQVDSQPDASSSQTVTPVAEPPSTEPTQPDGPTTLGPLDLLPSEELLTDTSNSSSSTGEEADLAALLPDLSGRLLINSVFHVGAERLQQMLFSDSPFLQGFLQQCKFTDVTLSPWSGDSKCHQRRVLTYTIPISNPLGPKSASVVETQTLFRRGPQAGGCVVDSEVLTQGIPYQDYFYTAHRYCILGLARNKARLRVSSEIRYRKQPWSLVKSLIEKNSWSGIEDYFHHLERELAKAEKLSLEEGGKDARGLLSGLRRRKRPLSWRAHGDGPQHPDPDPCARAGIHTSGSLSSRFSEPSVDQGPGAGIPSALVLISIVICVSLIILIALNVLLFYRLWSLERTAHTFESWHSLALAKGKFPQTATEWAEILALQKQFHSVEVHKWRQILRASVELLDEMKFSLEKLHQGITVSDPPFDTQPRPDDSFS
UniProt P42357: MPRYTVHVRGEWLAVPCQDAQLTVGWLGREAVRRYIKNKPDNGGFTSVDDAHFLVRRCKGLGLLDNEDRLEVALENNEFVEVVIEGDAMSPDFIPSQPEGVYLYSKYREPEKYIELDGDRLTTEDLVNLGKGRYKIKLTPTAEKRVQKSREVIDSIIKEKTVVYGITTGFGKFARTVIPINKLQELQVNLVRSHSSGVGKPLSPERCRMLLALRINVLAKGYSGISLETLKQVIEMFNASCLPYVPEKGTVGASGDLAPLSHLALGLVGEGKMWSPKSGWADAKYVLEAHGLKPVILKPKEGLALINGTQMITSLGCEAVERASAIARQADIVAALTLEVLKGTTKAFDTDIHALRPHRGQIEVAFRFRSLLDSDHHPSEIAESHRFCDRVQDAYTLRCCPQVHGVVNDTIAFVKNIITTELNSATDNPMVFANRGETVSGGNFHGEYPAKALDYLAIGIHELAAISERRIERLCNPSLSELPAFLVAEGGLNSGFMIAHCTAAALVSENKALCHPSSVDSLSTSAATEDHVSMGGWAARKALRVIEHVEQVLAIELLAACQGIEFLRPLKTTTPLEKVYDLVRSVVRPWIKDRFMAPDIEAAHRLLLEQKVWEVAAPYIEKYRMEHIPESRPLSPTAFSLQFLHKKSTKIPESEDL
UniProt Q6Y1H2: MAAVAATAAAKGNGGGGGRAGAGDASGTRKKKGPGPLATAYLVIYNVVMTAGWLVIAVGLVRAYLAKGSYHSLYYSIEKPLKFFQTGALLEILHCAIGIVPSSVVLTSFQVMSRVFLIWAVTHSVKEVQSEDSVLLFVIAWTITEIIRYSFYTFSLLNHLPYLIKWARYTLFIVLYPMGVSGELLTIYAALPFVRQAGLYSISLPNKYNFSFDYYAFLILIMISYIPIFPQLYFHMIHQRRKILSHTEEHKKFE
UniProt P00390: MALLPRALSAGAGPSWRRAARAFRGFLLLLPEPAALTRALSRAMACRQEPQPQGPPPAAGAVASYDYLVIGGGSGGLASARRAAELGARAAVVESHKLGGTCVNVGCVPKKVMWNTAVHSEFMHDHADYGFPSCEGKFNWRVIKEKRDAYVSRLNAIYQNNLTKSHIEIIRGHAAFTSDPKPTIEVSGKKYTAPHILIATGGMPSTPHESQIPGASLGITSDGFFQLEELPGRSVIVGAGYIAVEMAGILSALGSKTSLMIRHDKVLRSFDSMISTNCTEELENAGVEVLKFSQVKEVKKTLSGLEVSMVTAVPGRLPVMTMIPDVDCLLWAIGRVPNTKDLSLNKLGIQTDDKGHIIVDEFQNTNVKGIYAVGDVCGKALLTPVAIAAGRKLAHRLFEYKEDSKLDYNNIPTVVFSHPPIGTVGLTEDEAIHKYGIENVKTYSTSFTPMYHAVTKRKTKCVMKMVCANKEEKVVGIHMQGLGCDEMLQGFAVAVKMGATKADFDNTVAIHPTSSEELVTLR

Assays:
Test in all cases: log2 fold change, soluble protein after heating vs DMSO (PISA); higher = thermal stabilisation; K562 lysate, 10 uM; active = over 0.2 and 3.5 SD of the protein, either way, in both replicates (recomputed)
erlotinib = compound: C#Cc1cccc(Nc2ncnc3cc(OCCOC)c(OCCOC)cc23)c1 [erlotinib]
Outline: (§1)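 To prepare the extract, K562 pellets were dounce-homogenised in PBS pH 7.4 with 1 mM MgCl2, giving crude material at 1 mg/mL protein. This was treated with 10 μM compound for 30 min, then heated in aliquots for 3 min over 48°C-58°C before pooling and addition of NP-40 to 0.5% at 4°C. Centrifugation at 21,000xg for 90 min left soluble protein in the supernatant, which TMTpro 16plex LC-MS/MS quantified with equalised channel sums. Results are log-two fold changes in thermal stability compared with solvent controls, from duplicates.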

[1] = compound: C/C(=N\NC(=O)C1=CC(=CC=C1)S(=O)(=O)N2CCOCC2)/C3=C(C=CC(=C3)Cl)O
Outline: as §1

[2] = compound: C1=CC(=CC=C1C2=NC3=C(N2)C=C(C=C3)C(=O)N)OC4=CC=C(C=C4)Cl
Outline: as §1

[3] = compound: C1=CC2=C(C=CC(=C2)/C=C\3/C(=O)NC(=NCC4=CC=CS4)S3)N=C1
Outline: as §1

[4] = compound: C1=CC2=NC=CN=C2C=C1/C=C/3\C(=O)NC(=O)S3
Outline: as §1

[5] = compound: C1=CC=C(C=C1)C2=NC(=C(N2)C3=CC=NC=C3)C4=CC(=C(C=C4)Cl)O
Outline: as §1

[6] = compound: C1=CC=C2C(=C1)C3=NNC4=CC=CC(=C43)C2=O
Outline: as §1

[7] = compound: C1CCN(C1)C(=O)NC2=CC=CC(=C2)NC3=NC=C(C(=N3)NCCC4=CN=CN4)Br
Outline: as §1

[8] = compound: C1CN(CCC1(CC2=CC=C(C=C2)Cl)N)C3=NC=NC4=C3C=CN4
Outline: as §1

IRAK-1-4 Inhibitor I = compound: C1COCCN1CCN2C3=CC=CC=C3N=C2NC(=O)C4=CC(=CC=C4)[N+](=O)[O-] [IRAK-1-4 Inhibitor I]
Outline: as §1

ibrutinib = compound: C=CC(=O)N1CCC[C@@H](n2nc(-c3ccc(Oc4ccccc4)cc3)c3c(N)ncnc32)C1 [ibrutinib]
Outline: as §1

[9] = compound: CC(=O)c1cnc2ccc(-c3cc(Cl)c(O)c(Cl)c3)nc2c1N[C@H]1CC[C@H](CN(C)C)CC1
Outline: as §1

ralimetinib = compound: CC(C)(C)Cn1c(N)nc2ccc(-c3[nH]c(C(C)(C)C)nc3-c3ccc(F)cc3)nc21 [ralimetinib]
Outline: as §1

[10] = compound: CC(C)(O)CC(=O)NCCn1ccc2ncnc(Nc3ccc(Oc4cccc(C(F)(F)F)c4)c(Cl)c3)c21
Outline: as §1

[11] = compound: CC(C)C1=C2N=C(C=C(N2N=C1)NCC3=CC=CC=C3)NCCCCCCN
Outline: as §1

[12] = compound: CC1=C(C(CC(=O)N1)C2=CC=C(C=C2)C(F)(F)F)C(=O)NC3=C(C=C4C(=C3)C=NN4)F
Outline: as §1

[13] = compound: CC1=C(C2=C(C=C1)C(=O)C3=CC=CC=C3N2CCCN)C
Outline: as §1

[14] = compound: CC1=C(C=C(C=C1)NC(=O)C2=CC(=CC=C2)C(C)(C)C#N)NC3=CC4=C(C=C3)N=CN(C4=O)C
Outline: as §1

[15] = compound: CC1=C(C=C(C=C1)NC(=O)C2=CC(=CC=C2)N(C)C)NC(=O)C3=CC=C(C=C3)O
Outline: as §1

[16] = compound: CC1=CC=C(C=C1)SC2=C3C=C(SC3=CN=C2)C(=O)N
Outline: as §1

Measured: log2 fold change

GTF2H1 (UniProt P32780)
inactive: erlotinib 0.044 | [1] 0.008 | [2] 0.012 | [3] -0.032 | [4] -0.011 | [5] 0.003 | [6] -0.013 | [7] 0.029 | [8] -0.005 | IRAK-1-4 Inhibitor I -0.019 | ibrutinib 0.023 | [9] 0.023 | ralimetinib 0.026 | [10] 0.003 | [11] -0.005 | [12] 0.036 | [13] -0.022 | [14] 0.001 | [15] 0.054 | [16] 0.015

GPX4 (UniProt P36969)
inactive: erlotinib 0.02 | [1] 0.051 | [2] -0.037 | [3] -0.016 | [4] 0.04 | [5] -0.029 | [6] -0.06 | [7] 0.024 | [8] 0.021 | IRAK-1-4 Inhibitor I 0.012 | ibrutinib -0.013 | [9] 0.01 | ralimetinib 0.011 | [10] 0.018 | [11] -0.004 | [12] 0.006 | [13] -0.002 | [14] 0.014 | [15] 0.003 | [16] 0.039

HAUS6 (UniProt Q7Z4H7)
inactive: erlotinib 0.031 | [1] 0.102 | [2] -0.038 | [3] -0.035 | [4] -0.008 | [5] 0.019 | [6] 0.024 | [7] -0.015 | [8] 0.039 | IRAK-1-4 Inhibitor I 0.017 | ibrutinib 0.025 | [9] -0.054 | ralimetinib 0.027 | [10] -0.003 | [11] -0.015 | [12] 0.029 | [13] 0.01 | [14] -0.008 | [15] 0.073 | [16] 0.078

GRAMD1A (UniProt Q96CP6)
inactive: erlotinib 0.054 | [2] 0.064 | [11] -0.098 | [14] -0.126

HAL (UniProt P42357)
inactive: erlotinib 0.082 | [2] -0.259 | [5] -0.048 | [7] -0.164 | [8] -0.129 | IRAK-1-4 Inhibitor I -0.193 | [9] -0.023 | ralimetinib -0.233 | [10] 0.762 | [11] 0.082 | [13] 0.254 | [14] 0.258 | [15] 0.057 | [16] -0.031

HACD2 (UniProt Q6Y1H2)
inactive: erlotinib 0.063 | [2] 0.078 | [4] -0.019 | [5] -0.026 | IRAK-1-4 Inhibitor I -0.113 | ibrutinib -0.148 | [9] 0.1 | ralimetinib 0.014 | [10] 0.136 | [11] -0.04 | [15] -0.074 | [16] 0.001

GSR isoform 5 (UniProt P00390)
inactive: erlotinib 0.065 | [1] -0.087 | [2] 0.164 | [3] -0.089 | [4] 0.023 | [5] -0.339 | [6] -0.277 | IRAK-1-4 Inhibitor I 0.084 | ibrutinib -0.033 | [9] -0.086 | ralimetinib 0.092 | [10] -0.208 | [11] -0.014 | [13] -0.323 | [14] 0.188 | [15] 0.064 | [16] -0.087

GSTO1 (UniProt Q5TA02)
inactive: [9] -0.027 | [12] -0.018 | [16] -0.015

HAGH isoform 2 (UniProt Q16775)
inactive: erlotinib -0.007 | [2] 0.09 | [5] -0.215 | IRAK-1-4 Inhibitor I 0.249 | [9] 0.029 | ralimetinib -0.078 | [10] 0.207 | [11] -0.038 | [13] -0.033 | [14] 0 | [15] 0.046 | [16] 0.188

H3-3A (UniProt P84243)
inactive: erlotinib 0.038 | [1] 0.001 | [2] 0.048 | [3] -0.033 | [4] -0.055 | [6] 0.056 | [7] -0.053 | ibrutinib 0.042 | [9] -0.047 | [11] 0.013 | [14] -0.034 | [16] -0.086
active: [8] -0.315
